Test results reported in patent US12023336B2, “Antiviral drug compounds and composition thereof” (priority 2018, dated 2024).

System: HIV-1NL4.3
Format: cell-based
Method: TZM-bl cells were seeded at the density of 12,000-15,000 cells/well of 96 well plate with 100 μL DMEM (with 10% FBS) in each well. 12-hours post seeding, the media was replaced with fresh DMEM containing HTV-1NL4.3 at 0.1 MOI and cells were treated with different molecules independently at 10 μM working concentration. Cells were incubated in humidified CO2 incubator for 4-hours. After incubation, the media was replaced and cells were washed twice with incomplete DMEM and 100 μL of complete DMEM was added in each wells along with the molecules of interest and incubated at 37° C. in humidified CO2 incubator. 48-hours post incubation, the media was removed and cells were washed twice with 100 μL of 1×PBS. After washing, cells were lysed using cell culture lysis reagent and Steady-Glo substrate was added at 1:1 ration in each well. Luminescence was measured using Molecular Devices M5 (Table 2). % Inhibition was calculated using following formula and plotted.
[formula] (RLU=Relative Luminescence Unit)

Compound: O=C1NC(=O)c2c1c(-c1ccccc1)cc1[nH]c3ccc(O)cc3c21 [PD-407824]
- % Inhibition at 10 μM Concentration: 99.78%
